37 targets from the supplement of paper PMC12067093, “Discovery and optimisation of a covalent ligand for TRIM25 and its application to targeted protein ubiquitination” (Chemical Science, 2025) can be followed below.

Chains of the proteins cited; added tags and fusions are not shown. Lines headed by an entry give the natural chain unless they say otherwise; changes in a name come on top.
UniProt Q149N8: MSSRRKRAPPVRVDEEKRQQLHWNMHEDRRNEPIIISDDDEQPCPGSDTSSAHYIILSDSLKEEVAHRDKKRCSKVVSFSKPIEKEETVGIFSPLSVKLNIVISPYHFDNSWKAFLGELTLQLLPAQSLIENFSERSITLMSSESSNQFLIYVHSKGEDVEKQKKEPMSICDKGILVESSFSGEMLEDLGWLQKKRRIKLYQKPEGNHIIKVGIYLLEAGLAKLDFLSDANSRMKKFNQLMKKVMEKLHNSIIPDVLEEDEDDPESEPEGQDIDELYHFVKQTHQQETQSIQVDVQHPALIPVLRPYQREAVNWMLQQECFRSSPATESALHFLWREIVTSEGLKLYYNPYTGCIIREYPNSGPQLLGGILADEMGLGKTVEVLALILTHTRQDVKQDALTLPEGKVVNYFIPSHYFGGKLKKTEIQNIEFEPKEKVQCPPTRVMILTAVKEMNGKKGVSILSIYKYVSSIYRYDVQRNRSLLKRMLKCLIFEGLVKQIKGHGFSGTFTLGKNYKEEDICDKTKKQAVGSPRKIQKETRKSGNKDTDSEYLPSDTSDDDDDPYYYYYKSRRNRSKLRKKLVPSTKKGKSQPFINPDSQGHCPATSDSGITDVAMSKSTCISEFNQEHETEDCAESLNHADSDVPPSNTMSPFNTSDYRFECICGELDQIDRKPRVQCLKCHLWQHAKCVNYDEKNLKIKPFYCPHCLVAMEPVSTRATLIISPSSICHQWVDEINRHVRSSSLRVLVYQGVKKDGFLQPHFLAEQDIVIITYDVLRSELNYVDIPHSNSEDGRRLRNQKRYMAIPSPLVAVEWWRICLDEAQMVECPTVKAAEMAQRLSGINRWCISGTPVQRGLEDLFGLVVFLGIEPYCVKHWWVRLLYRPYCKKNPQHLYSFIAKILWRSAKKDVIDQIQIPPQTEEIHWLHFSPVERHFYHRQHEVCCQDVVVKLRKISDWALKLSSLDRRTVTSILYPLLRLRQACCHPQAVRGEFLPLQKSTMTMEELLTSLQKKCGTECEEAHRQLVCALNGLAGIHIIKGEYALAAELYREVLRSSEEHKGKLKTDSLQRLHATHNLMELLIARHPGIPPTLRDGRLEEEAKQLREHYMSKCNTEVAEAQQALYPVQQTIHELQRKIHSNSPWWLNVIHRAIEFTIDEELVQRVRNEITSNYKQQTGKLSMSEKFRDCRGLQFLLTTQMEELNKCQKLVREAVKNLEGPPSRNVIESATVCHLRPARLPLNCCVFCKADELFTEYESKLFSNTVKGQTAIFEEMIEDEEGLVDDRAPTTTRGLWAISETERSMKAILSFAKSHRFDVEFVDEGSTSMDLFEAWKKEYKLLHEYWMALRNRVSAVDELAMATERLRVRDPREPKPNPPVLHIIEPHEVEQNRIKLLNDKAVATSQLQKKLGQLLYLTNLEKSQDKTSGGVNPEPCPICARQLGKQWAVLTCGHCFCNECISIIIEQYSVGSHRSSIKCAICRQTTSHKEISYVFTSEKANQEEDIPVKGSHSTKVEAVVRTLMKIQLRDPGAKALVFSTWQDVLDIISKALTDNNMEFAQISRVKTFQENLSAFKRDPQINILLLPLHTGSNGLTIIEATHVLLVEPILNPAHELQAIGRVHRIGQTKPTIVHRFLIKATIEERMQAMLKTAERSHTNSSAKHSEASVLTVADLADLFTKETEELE
UniProt O43772: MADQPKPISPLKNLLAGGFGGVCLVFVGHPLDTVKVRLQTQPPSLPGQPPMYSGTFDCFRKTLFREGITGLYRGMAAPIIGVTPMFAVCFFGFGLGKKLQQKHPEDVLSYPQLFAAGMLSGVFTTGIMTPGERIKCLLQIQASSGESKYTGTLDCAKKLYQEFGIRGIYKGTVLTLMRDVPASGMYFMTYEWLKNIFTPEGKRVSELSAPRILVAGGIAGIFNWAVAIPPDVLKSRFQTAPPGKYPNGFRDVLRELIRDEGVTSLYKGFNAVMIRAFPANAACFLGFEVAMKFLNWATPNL
UniProt Q9NTG7: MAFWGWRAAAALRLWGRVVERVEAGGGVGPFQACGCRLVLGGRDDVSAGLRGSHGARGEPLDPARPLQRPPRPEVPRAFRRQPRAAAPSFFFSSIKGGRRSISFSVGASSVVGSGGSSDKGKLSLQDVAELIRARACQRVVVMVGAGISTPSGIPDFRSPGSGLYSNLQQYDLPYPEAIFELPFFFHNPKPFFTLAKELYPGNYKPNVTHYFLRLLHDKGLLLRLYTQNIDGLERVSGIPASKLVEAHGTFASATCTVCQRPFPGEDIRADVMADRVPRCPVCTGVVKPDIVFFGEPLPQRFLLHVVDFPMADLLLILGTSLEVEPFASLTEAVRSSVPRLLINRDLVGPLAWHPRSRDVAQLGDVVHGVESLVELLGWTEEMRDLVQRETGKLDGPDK
UniProt A0MZ66, whole entry, looked up: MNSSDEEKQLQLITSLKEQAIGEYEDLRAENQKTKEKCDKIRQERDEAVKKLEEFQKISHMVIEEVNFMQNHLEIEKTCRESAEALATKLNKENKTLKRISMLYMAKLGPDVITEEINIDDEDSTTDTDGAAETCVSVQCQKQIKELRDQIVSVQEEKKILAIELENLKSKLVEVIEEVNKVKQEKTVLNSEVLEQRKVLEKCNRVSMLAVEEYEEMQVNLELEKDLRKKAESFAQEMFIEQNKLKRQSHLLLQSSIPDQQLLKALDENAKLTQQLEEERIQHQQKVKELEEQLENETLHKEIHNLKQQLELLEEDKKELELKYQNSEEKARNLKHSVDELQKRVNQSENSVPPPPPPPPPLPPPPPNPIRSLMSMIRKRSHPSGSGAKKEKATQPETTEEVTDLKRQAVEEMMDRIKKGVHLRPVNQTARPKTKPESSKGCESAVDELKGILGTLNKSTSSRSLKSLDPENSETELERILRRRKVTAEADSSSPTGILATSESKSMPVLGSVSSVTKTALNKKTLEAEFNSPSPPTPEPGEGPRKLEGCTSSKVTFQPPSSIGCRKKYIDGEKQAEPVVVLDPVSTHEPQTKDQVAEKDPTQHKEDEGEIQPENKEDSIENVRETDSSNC
UniProt Q9UBX3: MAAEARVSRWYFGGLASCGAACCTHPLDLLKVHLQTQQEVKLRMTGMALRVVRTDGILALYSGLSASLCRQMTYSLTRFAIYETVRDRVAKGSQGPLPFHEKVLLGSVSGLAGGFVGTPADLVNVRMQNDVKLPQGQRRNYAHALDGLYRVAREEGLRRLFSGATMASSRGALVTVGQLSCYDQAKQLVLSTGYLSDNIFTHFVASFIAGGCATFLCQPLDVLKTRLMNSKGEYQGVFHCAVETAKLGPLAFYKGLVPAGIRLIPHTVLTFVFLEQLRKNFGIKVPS
UniProt Q96ST3: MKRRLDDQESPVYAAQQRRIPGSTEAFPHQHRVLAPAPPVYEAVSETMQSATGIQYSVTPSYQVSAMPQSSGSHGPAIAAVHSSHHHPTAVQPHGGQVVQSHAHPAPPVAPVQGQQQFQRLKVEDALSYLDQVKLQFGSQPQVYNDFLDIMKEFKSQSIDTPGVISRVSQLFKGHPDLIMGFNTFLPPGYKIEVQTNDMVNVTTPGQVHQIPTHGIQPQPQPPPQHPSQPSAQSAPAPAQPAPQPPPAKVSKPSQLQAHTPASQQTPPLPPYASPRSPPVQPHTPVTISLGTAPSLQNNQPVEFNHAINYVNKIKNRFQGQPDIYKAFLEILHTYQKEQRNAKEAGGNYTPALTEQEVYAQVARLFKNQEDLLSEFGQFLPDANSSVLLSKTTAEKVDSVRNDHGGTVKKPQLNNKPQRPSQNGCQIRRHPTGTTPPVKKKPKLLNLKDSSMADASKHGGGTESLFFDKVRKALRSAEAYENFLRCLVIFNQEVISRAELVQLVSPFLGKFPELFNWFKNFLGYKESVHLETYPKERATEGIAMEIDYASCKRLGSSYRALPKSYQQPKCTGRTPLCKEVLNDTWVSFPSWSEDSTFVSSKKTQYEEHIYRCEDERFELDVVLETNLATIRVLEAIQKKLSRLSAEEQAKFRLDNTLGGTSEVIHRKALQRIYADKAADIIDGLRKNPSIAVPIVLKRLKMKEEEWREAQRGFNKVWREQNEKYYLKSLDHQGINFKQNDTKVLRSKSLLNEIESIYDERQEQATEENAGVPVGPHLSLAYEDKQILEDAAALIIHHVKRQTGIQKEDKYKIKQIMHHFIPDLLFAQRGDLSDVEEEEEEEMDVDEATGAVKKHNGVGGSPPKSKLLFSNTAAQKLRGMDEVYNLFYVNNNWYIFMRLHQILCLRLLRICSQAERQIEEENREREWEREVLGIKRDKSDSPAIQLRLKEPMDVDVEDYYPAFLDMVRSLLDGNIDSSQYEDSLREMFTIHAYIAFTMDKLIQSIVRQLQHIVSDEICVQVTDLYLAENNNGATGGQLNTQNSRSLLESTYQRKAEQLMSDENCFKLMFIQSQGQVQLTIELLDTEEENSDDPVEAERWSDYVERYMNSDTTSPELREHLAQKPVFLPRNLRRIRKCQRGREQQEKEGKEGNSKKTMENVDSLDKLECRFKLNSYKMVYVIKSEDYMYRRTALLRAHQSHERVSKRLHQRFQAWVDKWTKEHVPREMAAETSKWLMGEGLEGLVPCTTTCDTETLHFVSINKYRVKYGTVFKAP
UniProt Q15637: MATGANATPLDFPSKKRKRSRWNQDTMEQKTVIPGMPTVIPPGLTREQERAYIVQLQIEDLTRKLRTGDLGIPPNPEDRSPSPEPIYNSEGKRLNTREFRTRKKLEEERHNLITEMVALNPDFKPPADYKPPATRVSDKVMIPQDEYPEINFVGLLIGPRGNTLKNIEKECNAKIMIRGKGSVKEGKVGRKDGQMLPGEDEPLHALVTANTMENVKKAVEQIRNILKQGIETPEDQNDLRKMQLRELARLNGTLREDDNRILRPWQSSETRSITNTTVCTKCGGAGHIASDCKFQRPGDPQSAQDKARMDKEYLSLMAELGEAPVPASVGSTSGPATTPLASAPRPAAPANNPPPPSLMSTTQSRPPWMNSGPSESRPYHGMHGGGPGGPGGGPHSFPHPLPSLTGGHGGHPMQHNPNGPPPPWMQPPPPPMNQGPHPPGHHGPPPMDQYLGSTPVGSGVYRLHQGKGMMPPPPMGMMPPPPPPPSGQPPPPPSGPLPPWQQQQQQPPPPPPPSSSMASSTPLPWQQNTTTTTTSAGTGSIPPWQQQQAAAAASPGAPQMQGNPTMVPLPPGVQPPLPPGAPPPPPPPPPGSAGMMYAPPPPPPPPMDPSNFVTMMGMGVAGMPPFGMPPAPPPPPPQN
UniProt Q15393: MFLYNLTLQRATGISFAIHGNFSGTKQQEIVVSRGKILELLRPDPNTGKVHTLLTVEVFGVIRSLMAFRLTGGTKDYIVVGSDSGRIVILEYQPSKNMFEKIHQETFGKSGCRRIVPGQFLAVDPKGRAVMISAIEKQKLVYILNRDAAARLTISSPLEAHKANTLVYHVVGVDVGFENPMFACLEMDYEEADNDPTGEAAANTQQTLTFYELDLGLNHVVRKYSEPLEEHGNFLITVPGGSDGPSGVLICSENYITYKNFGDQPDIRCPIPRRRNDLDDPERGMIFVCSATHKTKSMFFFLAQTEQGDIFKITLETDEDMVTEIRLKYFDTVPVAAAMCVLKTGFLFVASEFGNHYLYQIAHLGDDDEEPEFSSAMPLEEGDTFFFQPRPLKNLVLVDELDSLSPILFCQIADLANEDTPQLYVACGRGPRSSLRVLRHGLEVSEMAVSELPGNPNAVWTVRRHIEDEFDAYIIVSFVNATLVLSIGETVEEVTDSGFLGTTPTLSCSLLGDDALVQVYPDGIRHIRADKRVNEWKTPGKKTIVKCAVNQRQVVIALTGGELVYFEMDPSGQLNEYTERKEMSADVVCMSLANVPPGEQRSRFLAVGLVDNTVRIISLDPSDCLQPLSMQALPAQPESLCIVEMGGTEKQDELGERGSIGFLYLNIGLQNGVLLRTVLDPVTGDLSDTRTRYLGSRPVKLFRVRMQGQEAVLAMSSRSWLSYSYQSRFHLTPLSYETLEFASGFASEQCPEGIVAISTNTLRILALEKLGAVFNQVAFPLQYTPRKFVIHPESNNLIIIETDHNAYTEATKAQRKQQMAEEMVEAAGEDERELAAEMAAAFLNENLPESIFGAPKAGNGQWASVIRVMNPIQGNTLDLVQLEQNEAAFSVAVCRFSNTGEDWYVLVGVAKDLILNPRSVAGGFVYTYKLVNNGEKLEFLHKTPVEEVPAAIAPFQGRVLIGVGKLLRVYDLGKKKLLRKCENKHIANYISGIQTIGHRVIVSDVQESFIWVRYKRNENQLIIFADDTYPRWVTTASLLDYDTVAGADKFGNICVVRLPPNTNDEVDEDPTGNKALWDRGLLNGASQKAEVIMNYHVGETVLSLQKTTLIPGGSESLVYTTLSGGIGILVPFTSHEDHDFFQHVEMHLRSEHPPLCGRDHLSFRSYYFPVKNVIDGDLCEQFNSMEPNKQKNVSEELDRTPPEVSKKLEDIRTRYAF

The list shows a part of the results.
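Also: competitive chemoproteomic profiling in live THP-1 cells with an iodoacetamide desthiobiotin (IA-DTB) probe, comparing probe-labelled peptide intensities in compound-treated cells against DMSO-treated controls.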

Compound in the first assay: CC1Cc2ccccc2N1C(=O)C1CCCN(C1)C(=O)CCl (mixture of isomers) [TRIM25 ligand 11 (diastereomer mixture)]
Put plainly: probe-labelled cysteine peptide fold change vs DMSO (competition) (log2 fold change); higher = less target engagement (more negative = stronger competition). The note with it: 10 µM; THP-1; incubation time: 4 h.
Regarding “SEPT7_Q16181_160_VQCCLYFIAPSGHGLKPLDIEFMK (UniProt Q16181)”, the “probe-labelled cysteine peptide fold change” value stood at 0.0163.

“SHCBP1_Q8NEM2_426_GDTFVDCTGADIK (UniProt Q8NEM2)”: the “probe-labelled cysteine peptide fold change” value turned out to be 0.0136.

Consider “SETD2_Q9BYW2_1516_AQGEIACGEDCLNR (UniProt Q9BYW2)”, for which the “probe-labelled cysteine peptide fold change” value was 0.0992.

In the case of “SEPT5_Q99719_300_DVTCDVHYENYR (UniProt Q99719)”, the “probe-labelled cysteine peptide fold change” value turned out to be 0.188.

For the target “SETX_Q7Z333_1416_CMPSEPETIK (UniProt Q7Z333)”, the “probe-labelled cysteine peptide fold change” value is -0.13.

As for “SHKBP1_Q8TBC3_447_HLISVCADNNHVR (UniProt Q8TBC3)”, the “probe-labelled cysteine peptide fold change” value is -0.0257.

For “SHPRH_Q149N8_1110_CNTEVAEAQQALYPVQQTIHELQR (UniProt Q149N8)”, the “probe-labelled cysteine peptide fold change” value was -0.335.

Take “SLC25A20_O43772_136_CLLQIQASSGESK (UniProt O43772)”: the “probe-labelled cysteine peptide fold change” value was -0.0132.

In the case of “SIRT3_Q9NTG7_256+259_LVEAHGTFASATCTVCQRPFPGEDIR (UniProt Q9NTG7)”, the “probe-labelled cysteine peptide fold change” value was -0.2.

“SHCBP1_Q8NEM2_271_SSLSNCNSDSEQENISMVEGLK (UniProt Q8NEM2)”: the “probe-labelled cysteine peptide fold change” value is -0.0856.

Consider “SKA3_Q8IX90_126_NSVHEQEAINSDPELSNCENFQK (UniProt Q8IX90)”, for which the “probe-labelled cysteine peptide fold change” value came out at 0.211.

As for “SHTN1_A0MZ66_442_GCESAVDELK (UniProt A0MZ66)”, the “probe-labelled cysteine peptide fold change” value is -0.0874.

As to “SIVA1_O15304_62_LLFLGAQAYLDHVWDEGCAVVHLPESPKPGPTGAPR (UniProt O15304)”, the “probe-labelled cysteine peptide fold change” value came to 0.107.

“SH3GL1_Q99961_96_NPGYPQSEGLLGECMIR (UniProt Q99961)”: the “probe-labelled cysteine peptide fold change” value was -0.0238.

On to “SEPT8_Q92599_49_SVTQGFSFNILCVGETGIGK (UniProt Q92599)”, for which the “probe-labelled cysteine peptide fold change” value stood at 0.0502.

Turning to “SEPT2_Q15019_148+149_VHCCFYFISPFGHGLKPLDVAFMK (UniProt Q15019)”, the “probe-labelled cysteine peptide fold change” value was -0.0977.

Turning to “SHMT1_P34896_384_VLEACSIACNK (UniProt P34896)”, the “probe-labelled cysteine peptide fold change” value was -0.0385.

With “SFPQ_P23246_431_CSEGVFLLTTTPRPVIVEPLEQLDDEDGLPEK (UniProt P23246)”, the “probe-labelled cysteine peptide fold change” value was 0.153.

“SLC25A10_Q9UBX3_23_WYFGGLASCGAACCTHPLDLLK (UniProt Q9UBX3)”: the “probe-labelled cysteine peptide fold change” value came to 0.196.

On to “SH3KBP1_Q96B97_301_DCIDVGWWEGELNGR (UniProt Q96B97)”, for which the “probe-labelled cysteine peptide fold change” value is -0.0633.

Take “SERPINB8_P50452_128_FYQAELEELSFAEDTEECR (UniProt P50452)”: the “probe-labelled cysteine peptide fold change” value stood at 0.305.

On to “SIN3A_Q96ST3_551_ATEGIAMEIDYASCK (UniProt Q96ST3)”, for which the “probe-labelled cysteine peptide fold change” value came to 0.0337.

On to “SETD1B_Q9UPS6_1746_EHVTGCAR (UniProt Q9UPS6)”, for which the “probe-labelled cysteine peptide fold change” value is -0.0539.

Consider “SEPT2_Q15019_148_VHCCFYFISPFGHGLK (UniProt Q15019)”, for which the “probe-labelled cysteine peptide fold change” value is 0.25.

In the case of “SF1_Q15637_282_CGGAGHIASDCK (UniProt Q15637)”, the “probe-labelled cysteine peptide fold change” value is -0.0834.

For “SLC25A20_O43772_23_NLLAGGFGGVCLVFVGHPLDTVK (UniProt O43772)”, the “probe-labelled cysteine peptide fold change” value was -0.00829.

“SLC1A5_Q15758_363_CVEENNGVAK (UniProt Q15758)”: the “probe-labelled cysteine peptide fold change” value was -0.142.

As to “SETD2_Q9BYW2_736_DLDDTCMLHK (UniProt Q9BYW2)”, the “probe-labelled cysteine peptide fold change” value is -0.223.

For the target “SEPT2_Q15019_111_LTVVDTPGYGDAINCR (UniProt Q15019)”, the “probe-labelled cysteine peptide fold change” value came to 0.232.

Regarding “SEPT11_Q9NVA2_41+46_STSQGFCFNILCVGETGIGK (UniProt Q9NVA2)”, the “probe-labelled cysteine peptide fold change” value is -0.0574.

For “SERINC3_Q13530_72_KIPGFCEGGFK (UniProt Q13530)”, the “probe-labelled cysteine peptide fold change” value is -0.0152.

As to “SLC25A5_P05141_257_GTDIMYTGTLDCWRK (UniProt P05141)”, the “probe-labelled cysteine peptide fold change” value is -0.138.

For “SETX_Q7Z333_1565_NQGEYCPK (UniProt Q7Z333)”, the “probe-labelled cysteine peptide fold change” value was -0.111.

With “SETD1B_Q9UPS6_1908_FINHSCNPNCYAK (UniProt Q9UPS6)”, the “probe-labelled cysteine peptide fold change” value is 0.121.

On to “SFPQ_P23246_431_CSEGVFLLTTTPR (UniProt P23246)”, for which the “probe-labelled cysteine peptide fold change” value was determined as 0.0453.

“SIRT2_Q8IXJ6_164_CYTQNIDTLER (UniProt Q8IXJ6)”: the “probe-labelled cysteine peptide fold change” value amounted to 0.00114.

As to “SF3B3_Q15393_289_NDLDDPERGMIFVCSATHK (UniProt Q15393)”, the “probe-labelled cysteine peptide fold change” value is -0.0511.

The assay is the same for the next values; noted with them: 50 µM; THP-1; incubation time: 4 h.
For the target “SEPT7_Q16181_160_VQCCLYFIAPSGHGLKPLDIEFMK (UniProt Q16181)”, the “probe-labelled cysteine peptide fold change” value was -0.26.

Regarding “SHCBP1_Q8NEM2_426_GDTFVDCTGADIK (UniProt Q8NEM2)”, the “probe-labelled cysteine peptide fold change” value stood at 0.0133.

For the target “SETD2_Q9BYW2_1516_AQGEIACGEDCLNR (UniProt Q9BYW2)”, the “probe-labelled cysteine peptide fold change” value was -0.0102.

Consider “SEPT5_Q99719_300_DVTCDVHYENYR (UniProt Q99719)”, for which the “probe-labelled cysteine peptide fold change” value was determined as 0.171.

On to “SETX_Q7Z333_1416_CMPSEPETIK (UniProt Q7Z333)”, for which the “probe-labelled cysteine peptide fold change” value was -0.585.

“SHKBP1_Q8TBC3_447_HLISVCADNNHVR (UniProt Q8TBC3)”: the “probe-labelled cysteine peptide fold change” value was found to be 0.131.

Consider “SHPRH_Q149N8_1110_CNTEVAEAQQALYPVQQTIHELQR (UniProt Q149N8)”, for which the “probe-labelled cysteine peptide fold change” value was -0.156.

As to “SLC25A20_O43772_136_CLLQIQASSGESK (UniProt O43772)”, the “probe-labelled cysteine peptide fold change” value was determined as 0.0621.

With “SIRT3_Q9NTG7_256+259_LVEAHGTFASATCTVCQRPFPGEDIR (UniProt Q9NTG7)”, the “probe-labelled cysteine peptide fold change” value is -0.279.

For the target “SHCBP1_Q8NEM2_271_SSLSNCNSDSEQENISMVEGLK (UniProt Q8NEM2)”, the “probe-labelled cysteine peptide fold change” value was -0.0915.

For “SKA3_Q8IX90_126_NSVHEQEAINSDPELSNCENFQK (UniProt Q8IX90)”, the “probe-labelled cysteine peptide fold change” value was found to be 0.0728.

As to “SHTN1_A0MZ66_442_GCESAVDELK (UniProt A0MZ66)”, the “probe-labelled cysteine peptide fold change” value was -0.107.

Consider “SIVA1_O15304_62_LLFLGAQAYLDHVWDEGCAVVHLPESPKPGPTGAPR (UniProt O15304)”, for which the “probe-labelled cysteine peptide fold change” value turned out to be 0.179.

In the case of “SH3GL1_Q99961_96_NPGYPQSEGLLGECMIR (UniProt Q99961)”, the “probe-labelled cysteine peptide fold change” value is -0.243.

With “SEPT8_Q92599_49_SVTQGFSFNILCVGETGIGK (UniProt Q92599)”, the “probe-labelled cysteine peptide fold change” value worked out at 0.117.

For “SEPT2_Q15019_148+149_VHCCFYFISPFGHGLKPLDVAFMK (UniProt Q15019)”, the “probe-labelled cysteine peptide fold change” value is -0.066.

Take “SHMT1_P34896_384_VLEACSIACNK (UniProt P34896)”: the “probe-labelled cysteine peptide fold change” value is -0.0507.

Take “SFPQ_P23246_431_CSEGVFLLTTTPRPVIVEPLEQLDDEDGLPEK (UniProt P23246)”: the “probe-labelled cysteine peptide fold change” value was 0.0356.

As to “SLC25A10_Q9UBX3_23_WYFGGLASCGAACCTHPLDLLK (UniProt Q9UBX3)”, the “probe-labelled cysteine peptide fold change” value stood at 0.236.

On to “SH3KBP1_Q96B97_301_DCIDVGWWEGELNGR (UniProt Q96B97)”, for which the “probe-labelled cysteine peptide fold change” value worked out at 0.0287.

As for “SERPINB8_P50452_128_FYQAELEELSFAEDTEECR (UniProt P50452)”, the “probe-labelled cysteine peptide fold change” value amounted to 0.0573.

Consider “SIN3A_Q96ST3_551_ATEGIAMEIDYASCK (UniProt Q96ST3)”, for which the “probe-labelled cysteine peptide fold change” value turned out to be 0.072.

On to “SETD1B_Q9UPS6_1746_EHVTGCAR (UniProt Q9UPS6)”, for which the “probe-labelled cysteine peptide fold change” value is -0.0287.

With “SEPT2_Q15019_148_VHCCFYFISPFGHGLK (UniProt Q15019)”, the “probe-labelled cysteine peptide fold change” value worked out at 0.327.

In the case of “SF1_Q15637_282_CGGAGHIASDCK (UniProt Q15637)”, the “probe-labelled cysteine peptide fold change” value worked out at 0.023.

Turning to “SLC25A20_O43772_23_NLLAGGFGGVCLVFVGHPLDTVK (UniProt O43772)”, the “probe-labelled cysteine peptide fold change” value is -0.057.

Take “SLC1A5_Q15758_363_CVEENNGVAK (UniProt Q15758)”: the “probe-labelled cysteine peptide fold change” value was -0.0912.

Regarding “SETD2_Q9BYW2_736_DLDDTCMLHK (UniProt Q9BYW2)”, the “probe-labelled cysteine peptide fold change” value was -0.361.

Regarding “SEPT2_Q15019_111_LTVVDTPGYGDAINCR (UniProt Q15019)”, the “probe-labelled cysteine peptide fold change” value was found to be 0.115.

With “SEPT11_Q9NVA2_41+46_STSQGFCFNILCVGETGIGK (UniProt Q9NVA2)”, the “probe-labelled cysteine peptide fold change” value was -0.0148.

Turning to “SERINC3_Q13530_72_KIPGFCEGGFK (UniProt Q13530)”, the “probe-labelled cysteine peptide fold change” value was -0.0723.

For “SLC25A5_P05141_257_GTDIMYTGTLDCWRK (UniProt P05141)”, the “probe-labelled cysteine peptide fold change” value is -0.241.

As to “SETX_Q7Z333_1565_NQGEYCPK (UniProt Q7Z333)”, the “probe-labelled cysteine peptide fold change” value is -0.15.

With “SETD1B_Q9UPS6_1908_FINHSCNPNCYAK (UniProt Q9UPS6)”, the “probe-labelled cysteine peptide fold change” value was determined as 0.178.

“SFPQ_P23246_431_CSEGVFLLTTTPR (UniProt P23246)”: the “probe-labelled cysteine peptide fold change” value came to 0.126.

Turning to “SIRT2_Q8IXJ6_164_CYTQNIDTLER (UniProt Q8IXJ6)”, the “probe-labelled cysteine peptide fold change” value is -0.0419.

For “SF3B3_Q15393_289_NDLDDPERGMIFVCSATHK (UniProt Q15393)”, the “probe-labelled cysteine peptide fold change” value is 0.176.
